The values that follow come from PMC13615500.

First the molecules themselves.
B1: PLRG1 (protein, UniProt O43660 1-514)
chain: MVEEVQKHSVHTLVFRSLKRTHDMFVADNGKPVPLDEESHKRKMAIKLRNEYGPVLHMPTSKENLKEKGPQNATDSYVHKQYPANQGQEVEYFVAGTHPYPPGPGVALTADTKIQRMPSESAAQSLAVALPLQTKADANRTAPSGSEYRHPGASDRPQPTAMNSIVMETGNTKNSALMAKKAPTMPKPQWHPPWKLYRVISGHLGWVRCIAVEPGNQWFVTGSADRTIKIWDLASGKLKLSLTGHISTVRGVIVSTRSPYLFSCGEDKQVKCWDLEYNKVIRHYHGHLSAVYGLDLHPTIDVLVTCSRDSTARIWDVRTKASVHTLSGHTNAVATVRCQAAEPQIITGSHDTTIRLWDLVAGKTRVTLTNHKKSVRAVVLHPRHYTFASGSPDNIKQWKFPDGSFIQNLSGHNAIINTLTVNSDGVLVSGADNGTMHLWDWRTGYNFQRVHAAVQPGSLDSESGIFACAFDQSESRLLTAEADKTIKVYREDDTATEETHPVSWKPEIIKRKRF
B2: CWC15 (protein, UniProt Q9P013 1-229)
chain: MTTAARPTFEPARGGRGKGEGDLSQLSKQYSSRDLPSHTKIKYRQTTQDAPEEVRNRDFRRELEERERAAAREKNRDRPTREHTTSSSVSKKPRLDQIPAANLDADDPLTDEEDEDFEEESDDDDTAALLAELEKIKKERAEEQARKEQEQKAEEERIRMENILSGNPLLNLTGPSQPQANFKVKRRWDDDVVFKNCAKGVDDQKKDKRFVNDTLRSEFHKKFMEKYIK
B3: DHX8 (protein, UniProt Q14562 1-1220)
chain: MAVAVAMAGALIGSEPGPAEELAKLEYLSLVSKVCTELDNHLGINDKDLAEFVISLAEKNTTFDTFKASLVKNGAEFTDSLISNLLRLIQTMRPPAKPSTSKDPVVKPKTEKEKLKELFPVLCQPDNPSVRTMLDEDDVKVAVDVLKELEALMPSAAGQEKQRDAEHRDRTKKKKRSRSRDRNRDRDRDRERNRDRDHKRRHRSRSRSRSRTRERNKVKSRYRSRSRSQSPPKDRKDRDKYGERNLDRWRDKHVDRPPPEEPTIGDIYNGKVTSIMQFGCFVQLEGLRKRWEGLVHISELRREGRVANVADVVSKGQRVKVKVLSFTGTKTSLSMKDVDQETGEDLNPNRRRNLVGETNEETSMRNPDRPTHLSLVSAPEVEDDSLERKRLTRISDPEKWEIKQMIAANVLSKEEFPDFDEETGILPKVDDEEDEDLEIELVEEEPPFLRGHTKQSMDMSPIKIVKNPDGSLSQAAMMQSALAKERRELKQAQREAEMDSIPMGLNKHWVDPLPDAEGRQIAANMRGIGMMPNDIPEWKKHAFGGNKASYGKKTQMSILEQRESLPIYKLKEQLVQAVHDNQILIVIGETGSGKTTQITQYLAEAGYTSRGKIGCTQPRRVAAMSVAKRVSEEFGCCLGQEVGYTIRFEDCTSPETVIKYMTDGMLLRECLIDPDLTQYAIIMLDEAHERTIHTDVLFGLLKKTVQKRQDMKLIVTSATLDAVKFSQYFYEAPIFTIPGRTYPVEILYTKEPETDYLDASLITVMQIHLTEPPGDILVFLTGQEEIDTACEILYERMKSLGPDVPELIILPVYSALPSEMQTRIFDPAPPGSRKVVIATNIAETSLTIDGIYYVVDPGFVKQKVYNSKTGIDQLVVTPISQAQAKQRAGRAGRTGPGKCYRLYTERAYRDEMLTTNVPEIQRTNLASTVLSLKAMGINDLLSFDFMDAPPMETLITAMEQLYTLGALDDEGLLTRLGRRMAEFPLEPMLCKMLIMSVHLGCSEEMLTIVSMLSVQNVFYRPKDKQALADQKKAKFHQTEGDHLTLLAVYNSWKNNKFSNPWCYENFIQARSLRRAQDIRKQMLGIMDRHKLDVVSCGKSTVRVQKAICSGFFRNAAKKDPQEGYRTLIDQQVVYIHPSSALFNRQPEWVVYHELVLTTKEYMREVTTIDPRWLVEFAPAFFKVSDPTKLSKQKKQQRLEPLYNRYEEPNAWRISRAFRRR
B4: CRNKL1 (protein, UniProt Q9BZJ0 1-848)
chain: MTATVENLTFQKDTLGNAVDKNTSRLELRSYSLAGRHGSTEPLVLAWSSQFRRLTWGCALDALHRSPCVAASQHGVTHLIRSSRTPHSTRCRKEDAQPGHHGNGAASVTAQARGQRSVLQVPLPVPRSCLFSESFVVSVSSQSRFLASVPGTGVQRSTAADMAASTAAGKQRIPKVAKVKNKAPAEVQITAEQLLREAKERELELLPPPPQQKITDEEELNDYKLRKRKTFEDNIRKNRTVISNWIKYAQWEESLKEIQRARSIYERALDVDYRNITLWLKYAEMEMKNRQVNHARNIWDRAITTLPRVNQFWYKYTYMEEMLGNVAGARQVFERWMEWQPEEQAWHSYINFELRYKEVDRARTIYERFVLVHPDVKNWIKYARFEEKHAYFAHARKVYERAVEFFGDEHMDEHLYVAFAKFEENQKEFERVRVIYKYALDRISKQDAQELFKNYTIFEKKFGDRRGIEDIIVSKRRFQYEEEVKANPHNYDAWFDYLRLVESDAEAEAVREVYERAIANVPPIQEKRHWKRYIYLWINYALYEELEAKDPERTRQVYQASLELIPHKKFTFAKMWILYAQFEIRQKNLSLARRALGTSIGKCPKNKLFKVYIELELQLREFDRCRKLYEKFLEFGPENCTSWIKFAELETILGDIDRARAIYELAISQPRLDMPEVLWKSYIDFEIEQEETERTRNLYRRLLQRTQHVKVWISFAQFELSSGKEGSLTKCRQIYEEANKTMRNCEEKEERLMLLESWRSFEEEFGTASDKERVDKLMPEKVKKRRKVQTDDGSDAGWEEYFDYIFPEDAANQPNLKLLAMAKLWKKQQQEKEDAEHHPDEDVDESES
B5: ESS2 (protein, UniProt Q96DF8 1-476)
chain: METPGASASSLLLPAASRPPRKREAGEAGAATSKQRVLDEEEYIEGLQTVIQRDFFPDVEKLQAQKEYLEAEENGDLERMRQIAIKFGSALGKMSREPPPPYVTPATFETPEVHAGTGVVGNKPRPRGRGLEDGEAGEEEEKEPLPSLDVFLSRYTSEDNASFQEIMEVAKERSRARHAWLYQAEEEFEKRQKDNLELPSAEHQAIESSQASVETWKYKAKNSLMYYPEGVPDEEQLFKKPRQVVHKNTRFLRDPFSQALSRCQLQQAAALNAQHKQGKVGPDGKELIPQESPRVGGFGFVATPSPAPGVNESPMMTWGEVENTPLRVEGSETPYVDRTPGPAFKILEPGRRERLGLKMANEAAAKNRAKKQEALRRVTENLASLTPKGLSPAMSPALQRLVSRTASKYTDRALRASYTPSPARSTHLKTPASGLQTPTSTPAPGSATRTPLTQDPASITDNLLQLPARRKASDFF
B6: AQR (protein, UniProt O60306 1-1485)
chain: MAAPAQPKKIVAPTVSQINAEFVTQLACKYWAPHIKKKSPFDIKVIEDIYEKEIVKSRFAIRKIMLLEFSQYLENYLWMNYSPEVSSKAYLMSICCMVNEKFRENVPAWEIFKKKPDHFPFFFKHILKAALAETDGEFSLHEQTVLLLFLDHCFNSLEVDLIRSQVQQLISLPMWMGLQLARLELELKKTPKLRKFWNLIKKNDEKMDPEAREQAYQERRFLSQLIQKFISVLKSVPLSEPVTMDKVHYCERFIELMIDLEALLPTRRWFNTILDDSHLLVHCYLSNLVRREEDGHLFSQLLDMLKFYTGFEINDQTGNALTENEMTTIHYDRITSLQRAAFAHFPELYDFALSNVAEVDTRESLVKFFGPLSSNTLHQVASYLCLLPTLPKNEDTTFDKEFLLELLVSRHERRISQIQQLNQMPLYPTEKIIWDENIVPTEYYSGEGCLALPKLNLQFLTLHDYLLRNFNLFRLESTYEIRQDIEDSVSRMKPWQSEYGGVVFGGWARMAQPIVAFTVVEVAKPNIGENWPTRVRADVTINLNVRDHIKDEWEGLRKHDVCFLITVRPTKPYGTKFDRRRPFIEQVGLVYVRGCEIQGMLDDKGRVIEDGPEPRPNLRGESRTFRVFLDPNQYQQDMTNTIQNGAEDVYETFNIIMRRKPKENNFKAVLETIRNLMNTDCVVPDWLHDIILGYGDPSSAHYSKMPNQIATLDFNDTFLSIEHLKASFPGHNVKVTVEDPALQIPPFRITFPVRSGKGKKRKDADVEDEDTEEAKTLIVEPHVIPNRGPYPYNQPKRNTIQFTHTQIEAIRAGMQPGLTMVVGPPGTGKTDVAVQIISNIYHNFPEQRTLIVTHSNQALNQLFEKIMALDIDERHLLRLGHGEEELETEKDFSRYGRVNYVLARRIELLEEVKRLQKSLGVPGDASYTCETAGYFFLYQVMSRWEEYISKVKNKGSTLPDVTEVSTFFPFHEYFANAPQPIFKGRSYEEDMEIAEGCFRHIKKIFTQLEEFRASELLRSGLDRSKYLLVKEAKIIAMTCTHAALKRHDLVKLGFKYDNILMEEAAQILEIETFIPLLLQNPQDGFSRLKRWIMIGDHHQLPPVIKNMAFQKYSNMEQSLFTRFVRVGVPTVDLDAQGRARASLCNLYNWRYKNLGNLPHVQLLPEFSTANAGLLYDFQLINVEDFQGVGESEPNPYFYQNLGEAEYVVALFMYMCLLGYPADKISILTTYNGQKHLIRDIINRRCGNNPLIGRPNKVTTVDRFQGQQNDYILLSLVRTRAVGHLRDVRRLVVAMSRARLGLYIFARVSLFQNCFELTPAFSQLTARPLHLHIIPTEPFPTTRKNGERPSHEVQIIKNMPQMANFVYNMYMHLIQTTHHYHQTLLQLPPAMVEEGEEVQNQETELETEEEAMTVQADIIPSPTDTSCRQETPAFQTDTTPSETGATSTPEAIPALSETTPTVVGAVSAPAEANTPQDATSAPEETK

No constants are given. Whether binding was seen depends on the method and setting. In cells and extracts the contact can be indirect. Here binding means that the protein was enriched with, or labelled near, the bait; the list need not be complete. Sequences can lack the tags named with a protein.

This assay concerns the target T1, CCDC12, endogenously tagged with C-terminal 9×FLAG (human (endogenous in HEK293T)) (UniProt Q8WUD4).
T1 sequence: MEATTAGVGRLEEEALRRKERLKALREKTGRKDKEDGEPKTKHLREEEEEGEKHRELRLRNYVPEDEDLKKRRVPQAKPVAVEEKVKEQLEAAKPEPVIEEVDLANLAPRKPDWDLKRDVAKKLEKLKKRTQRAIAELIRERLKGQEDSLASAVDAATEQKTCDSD
Kind of assay: affinity purification with mass spectrometry; lysate of endogenously 9×FLAG-tagged HEK293T cells (0.1% NP-40, 0.1% Tween 20, 10% glycerol, 100 mM KCl, 5 mM MgCl2, 20 mM Tris-HCl pH 8.0, sonicated), 2 mg protein on anti-DYKDDDDK magnetic agarose beads 2 h at 4°C, eluted with 3xFLAG peptide; four biological replicates, parental HEK293T as control; hits: mean ZMADEX ≥3 and p ≤ 0.01.
With B1, the binding result is “binds”.

For B2, the binding result is given as “binds”.

For the molecule B3, the binding entry is given as “binds”. On to B4, for which the binding result was “binds”.

B5: the binding result is “binds”. To B6 belongs “binds”.
